The values below come from paper PMC8982406.

By UniProt entry, the sequences of proteins in these tests, tags left out. Where a name states a change or a piece, a line headed by the entry shows the natural chain unless it says otherwise.
UniProt Q9WTV7: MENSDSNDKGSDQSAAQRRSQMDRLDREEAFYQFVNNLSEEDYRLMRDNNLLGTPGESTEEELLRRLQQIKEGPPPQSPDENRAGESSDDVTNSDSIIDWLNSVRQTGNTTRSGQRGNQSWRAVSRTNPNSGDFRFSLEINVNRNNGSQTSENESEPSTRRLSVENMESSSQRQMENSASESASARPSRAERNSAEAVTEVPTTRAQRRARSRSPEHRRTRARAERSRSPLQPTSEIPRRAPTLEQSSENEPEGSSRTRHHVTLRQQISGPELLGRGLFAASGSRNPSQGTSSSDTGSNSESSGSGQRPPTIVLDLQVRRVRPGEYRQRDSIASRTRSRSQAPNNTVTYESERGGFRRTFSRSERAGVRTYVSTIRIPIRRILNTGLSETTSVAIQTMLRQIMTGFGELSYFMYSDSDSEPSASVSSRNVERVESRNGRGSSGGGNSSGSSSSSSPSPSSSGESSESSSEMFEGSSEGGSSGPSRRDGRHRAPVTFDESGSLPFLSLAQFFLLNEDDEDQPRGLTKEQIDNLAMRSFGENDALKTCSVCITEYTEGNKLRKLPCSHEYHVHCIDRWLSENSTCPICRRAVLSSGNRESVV
UniProt Q9NVW2: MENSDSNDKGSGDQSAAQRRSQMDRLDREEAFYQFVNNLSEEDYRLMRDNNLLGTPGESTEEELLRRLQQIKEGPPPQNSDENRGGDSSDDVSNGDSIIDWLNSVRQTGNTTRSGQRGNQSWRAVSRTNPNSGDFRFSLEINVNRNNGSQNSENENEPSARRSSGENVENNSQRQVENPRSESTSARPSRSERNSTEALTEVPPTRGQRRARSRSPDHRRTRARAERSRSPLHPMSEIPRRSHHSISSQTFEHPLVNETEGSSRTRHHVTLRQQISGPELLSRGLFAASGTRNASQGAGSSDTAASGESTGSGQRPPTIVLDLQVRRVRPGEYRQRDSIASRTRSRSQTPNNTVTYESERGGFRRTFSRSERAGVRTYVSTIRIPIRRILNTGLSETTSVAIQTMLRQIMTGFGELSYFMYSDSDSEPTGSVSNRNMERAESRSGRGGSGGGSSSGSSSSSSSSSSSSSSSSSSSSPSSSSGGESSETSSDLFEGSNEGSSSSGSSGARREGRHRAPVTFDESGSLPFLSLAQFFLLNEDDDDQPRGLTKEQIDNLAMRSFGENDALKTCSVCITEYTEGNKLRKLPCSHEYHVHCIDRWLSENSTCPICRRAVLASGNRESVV

These are yes or no findings as the source states them, for the method shown. In cells and extracts the contact can be indirect. For some of these results: Binding calls can cover weak binding; strength is not graded here. For some of these results: Tags and fused reporters may be left off the sequences shown.

Assay in all cases: co-IP; HEK293 cells transiently transfected with FLAG- or myc-tagged RLIM and ZC4H2 vectors; lysis in 50 mM Tris-HCl pH 7.4, 150 mM NaCl, 5 mM EDTA, 1% Triton X-100; anti-FLAG M2 beads, 4°C, 4 h; western blotting
A general note: In western blotting, separated proteins are transferred to a membrane and probed.

One assay deals with T1, FLAG-tagged ZC4H2 (UniProt Q9NQZ6).
T1 sequence: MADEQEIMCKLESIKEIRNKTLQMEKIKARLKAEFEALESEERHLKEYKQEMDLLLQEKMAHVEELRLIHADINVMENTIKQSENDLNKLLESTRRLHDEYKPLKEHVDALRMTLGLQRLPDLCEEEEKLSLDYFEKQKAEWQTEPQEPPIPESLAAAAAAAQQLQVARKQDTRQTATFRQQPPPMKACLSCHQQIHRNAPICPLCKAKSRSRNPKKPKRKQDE

Assay [1] addresses FLAG-tagged RLIM (not stated (human or mouse cDNA cloned)).
For assay [2], the target named is RLIM ΔR with S214A (not stated (human or mouse cDNA cloned)).
The target of assay [3] is RLIM ΔN (not stated (human or mouse cDNA cloned)) (UniProt Q9WTV7).
Assay [4] has as its target RLIM ΔNLS (not stated (human or mouse cDNA cloned)) (UniProt Q9NVW2).
Assay [5] addresses RLIM ΔR with ΔNLS (not stated (human or mouse cDNA cloned)).
The target in assay [6] is RLIM S214A (not stated (human or mouse cDNA cloned)) (UniProt Q9NVW2).

myc-tagged RLIM: in the assay with FLAG-tagged ZC4H2, the binding entry is listed as “binds”.

B1: myc-tagged ZC4H2 (protein, UniProt Q9NQZ6 1-224)
chain: MADEQEIMCKLESIKEIRNKTLQMEKIKARLKAEFEALESEERHLKEYKQEMDLLLQEKMAHVEELRLIHADINVMENTIKQSENDLNKLLESTRRLHDEYKPLKEHVDALRMTLGLQRLPDLCEEEEKLSLDYFEKQKAEWQTEPQEPPIPESLAAAAAAAQQLQVARKQDTRQTATFRQQPPPMKACLSCHQQIHRNAPICPLCKAKSRSRNPKKPKRKQDE
Consider B1, for which the binding result in assay [1] is reported as “binds”.

B2: ZC4H2 (wild type; mapping and mutation co-IPs) (protein, UniProt Q9NQZ6 1-224)
chain: MADEQEIMCKLESIKEIRNKTLQMEKIKARLKAEFEALESEERHLKEYKQEMDLLLQEKMAHVEELRLIHADINVMENTIKQSENDLNKLLESTRRLHDEYKPLKEHVDALRMTLGLQRLPDLCEEEEKLSLDYFEKQKAEWQTEPQEPPIPESLAAAAAAAQQLQVARKQDTRQTATFRQQPPPMKACLSCHQQIHRNAPICPLCKAKSRSRNPKKPKRKQDE
Regarding B2, the binding result in assay [2] was “no binding”; in assay [3] it was “binds”; in assay [4] it was “no binding”; in assay [5] it was “no binding”; in assay [6], “no binding”.
